## Library screen at single concentrations

Chains of the proteins cited; added tags and fusions are not shown. Residues count along the entry.
UniProt P9WPC5, whole entry: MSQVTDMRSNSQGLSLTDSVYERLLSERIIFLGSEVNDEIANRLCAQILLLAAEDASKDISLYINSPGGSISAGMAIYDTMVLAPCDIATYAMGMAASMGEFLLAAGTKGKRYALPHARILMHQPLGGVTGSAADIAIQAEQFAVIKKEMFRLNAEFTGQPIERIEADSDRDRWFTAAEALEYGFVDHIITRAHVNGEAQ
UniProt P9WPC3, whole entry partner: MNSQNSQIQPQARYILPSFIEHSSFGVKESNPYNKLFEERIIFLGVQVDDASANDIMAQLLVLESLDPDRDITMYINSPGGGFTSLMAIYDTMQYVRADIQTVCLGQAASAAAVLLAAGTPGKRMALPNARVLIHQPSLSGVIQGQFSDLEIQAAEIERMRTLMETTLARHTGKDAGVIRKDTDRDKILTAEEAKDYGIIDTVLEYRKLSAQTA
UniProt I6X8D2, whole entry: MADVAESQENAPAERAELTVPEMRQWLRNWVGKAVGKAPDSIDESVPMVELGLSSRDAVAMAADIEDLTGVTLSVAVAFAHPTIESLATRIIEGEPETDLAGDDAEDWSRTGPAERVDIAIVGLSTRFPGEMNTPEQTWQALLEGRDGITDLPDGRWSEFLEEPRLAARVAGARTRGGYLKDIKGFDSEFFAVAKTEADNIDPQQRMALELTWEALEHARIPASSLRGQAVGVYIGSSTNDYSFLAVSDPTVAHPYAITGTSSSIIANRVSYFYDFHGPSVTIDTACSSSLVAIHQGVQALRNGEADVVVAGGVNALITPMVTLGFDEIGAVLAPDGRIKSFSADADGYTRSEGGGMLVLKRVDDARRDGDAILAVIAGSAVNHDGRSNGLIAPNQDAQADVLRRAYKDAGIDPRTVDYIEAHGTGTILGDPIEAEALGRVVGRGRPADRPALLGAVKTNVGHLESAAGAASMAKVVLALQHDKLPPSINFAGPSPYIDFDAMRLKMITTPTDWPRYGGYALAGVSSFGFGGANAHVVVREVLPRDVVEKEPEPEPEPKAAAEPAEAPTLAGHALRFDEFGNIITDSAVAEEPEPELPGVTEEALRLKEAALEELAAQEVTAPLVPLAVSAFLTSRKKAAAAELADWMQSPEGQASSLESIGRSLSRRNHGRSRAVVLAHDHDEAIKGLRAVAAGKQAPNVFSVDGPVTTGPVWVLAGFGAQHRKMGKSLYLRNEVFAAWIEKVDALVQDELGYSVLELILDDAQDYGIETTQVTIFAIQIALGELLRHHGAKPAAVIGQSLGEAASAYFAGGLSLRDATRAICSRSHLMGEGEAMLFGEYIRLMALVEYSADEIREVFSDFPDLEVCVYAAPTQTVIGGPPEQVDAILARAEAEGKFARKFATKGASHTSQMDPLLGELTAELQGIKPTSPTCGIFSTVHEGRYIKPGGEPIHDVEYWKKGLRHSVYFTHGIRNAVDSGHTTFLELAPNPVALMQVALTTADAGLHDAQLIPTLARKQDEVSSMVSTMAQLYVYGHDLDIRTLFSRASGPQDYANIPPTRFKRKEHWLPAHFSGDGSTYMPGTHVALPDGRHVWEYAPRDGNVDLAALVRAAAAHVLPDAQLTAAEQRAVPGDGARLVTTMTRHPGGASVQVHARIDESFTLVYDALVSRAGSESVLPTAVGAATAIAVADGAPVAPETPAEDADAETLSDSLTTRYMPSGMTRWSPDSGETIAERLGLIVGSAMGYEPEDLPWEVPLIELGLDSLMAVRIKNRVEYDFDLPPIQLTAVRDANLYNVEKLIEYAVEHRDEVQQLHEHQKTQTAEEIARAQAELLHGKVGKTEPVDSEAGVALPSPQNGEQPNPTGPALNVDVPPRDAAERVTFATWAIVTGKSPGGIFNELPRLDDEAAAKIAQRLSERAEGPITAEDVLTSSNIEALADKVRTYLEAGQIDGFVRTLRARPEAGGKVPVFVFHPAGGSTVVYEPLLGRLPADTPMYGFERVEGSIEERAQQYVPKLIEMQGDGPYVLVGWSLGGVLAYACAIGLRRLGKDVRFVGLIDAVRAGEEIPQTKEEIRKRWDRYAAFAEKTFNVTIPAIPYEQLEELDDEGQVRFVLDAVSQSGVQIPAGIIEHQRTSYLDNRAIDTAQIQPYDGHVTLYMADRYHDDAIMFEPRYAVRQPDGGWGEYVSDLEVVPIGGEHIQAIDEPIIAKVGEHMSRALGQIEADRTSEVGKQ
UniProt Q8IDJ8, 1-583: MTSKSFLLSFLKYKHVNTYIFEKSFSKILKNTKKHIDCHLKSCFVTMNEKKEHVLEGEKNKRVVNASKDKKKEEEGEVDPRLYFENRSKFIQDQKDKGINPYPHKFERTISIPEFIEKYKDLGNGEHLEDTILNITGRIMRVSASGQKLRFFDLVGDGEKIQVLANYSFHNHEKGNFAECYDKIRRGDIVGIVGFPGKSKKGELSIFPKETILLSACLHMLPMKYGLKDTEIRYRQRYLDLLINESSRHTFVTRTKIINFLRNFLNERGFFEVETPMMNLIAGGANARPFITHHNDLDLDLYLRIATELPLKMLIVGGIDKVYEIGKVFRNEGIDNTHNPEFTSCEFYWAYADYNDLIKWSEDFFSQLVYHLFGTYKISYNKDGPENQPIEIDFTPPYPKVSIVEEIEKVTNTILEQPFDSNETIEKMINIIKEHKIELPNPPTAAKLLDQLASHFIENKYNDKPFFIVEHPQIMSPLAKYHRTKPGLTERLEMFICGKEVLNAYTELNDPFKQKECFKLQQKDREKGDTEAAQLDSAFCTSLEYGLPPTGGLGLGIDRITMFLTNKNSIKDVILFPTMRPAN

ClpP1P2: 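Protease assay of ClpP1P2, read by the AMC dye that it sets free. Target: ClpP1P2, Mycobacterium tuberculosis (UniProt P9WPC5 and UniProt P9WPC3). Concentration: 50 µM. Direction is inferred from only a few compounds that gave an IC50; most scored high, so higher reads as stronger inhibition. Most other retested compounds had strongly negative values. Size under these conditions: about 69,000 compounds, about 10 of them at 50% or above in at least one test.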
Leishmania in macrophages: 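Cell assay of Leishmania donovani living inside macrophages; the read-out is not stated. Tested at 30 µM. The record gives no direction; compounds that gave an IC50 in retests scored well above the rest, so higher reads as stronger inhibition. Size under these conditions: about 69,000 compounds, about 1,000 of them at 50% or above in at least one test.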
Pks13 thioesterase: 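Enzyme assay of the thioesterase domain of polyketide synthase 13; the read-out is not stated. Target: Polyketide synthase Pks13, Mycobacterium tuberculosis (UniProt I6X8D2). Tested at 30 µM. The record gives no direction; the compounds picked for IC50 retests had high values, so higher reads as stronger inhibition. Of about 67,000 compounds tested this way, about 300 (0.46%) reached 50% or more in at least one test.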
PfKRS1: 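Enzyme assay of the cytosolic lysyl-tRNA synthetase in 384-well plates, read by luminescence. Target: Lysine-tRNA ligase, Plasmodium falciparum 3D7 (UniProt Q8IDJ8). Compounds at 30 µM. Direction is inferred from only a few compounds that gave an IC50; most scored high, so higher reads as stronger inhibition. Size under these conditions: about 69,000 compounds, about 49 of them at 50% or above in at least one test.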
Toxoplasma: 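Assay of Toxoplasma gondii numbers, read through their beta-galactosidase reporter with a colour substrate. Tested at 10 µM. Higher reads as fewer parasites (inferred from which compounds were picked for retests). Of about 67,000 compounds tested this way, about 260 (0.38%) reached 50% or more in at least one test.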

Each number is a percent effect as filed. How 0% and 100% were set is not recorded. Most values in the screen are low, and negative values occur. The compounds are a random part of those screened. Two or more numbers in one place are separate tests of the same structure; such repeats can differ widely.

For CC(C)c1nnc2n1CCN(CCC(=O)Nc1sccc1C#N)C2 the result was ClpP1P2: -7.134%; Leishmania in macrophages: 12.72%; Pks13 thioesterase: -9.673%; PfKRS1: 0.8852%; Toxoplasma: -37.38%.
For CN(C)c1ccc(CN2CCN(c3ccc(C#N)cc3)C(=O)C2)cn1 the result was ClpP1P2: -1.194%; Leishmania in macrophages: -3.199%; Pks13 thioesterase: 0.6607%; PfKRS1: 6.321%; Toxoplasma: -17.05%.
For Cc1c(C(=O)N2CCOCC2)n(C)c2ccc(Cl)cc12 the result was ClpP1P2: -0.6821%; Pks13 thioesterase: -14.5%; PfKRS1: 3.288%.
For Cc1noc(C)c1-c1cncc(CC2CCN(C(=O)c3cc[nH]n3)C2)n1 (centres undefined) the result was ClpP1P2: -9.347%; Leishmania in macrophages: -13.29%; Pks13 thioesterase: 5.506%; PfKRS1: 4.033%; Toxoplasma: -6.202%.
For O=C(COc1coc(CN2CCOCC2)cc1=O)Nc1ccc(Cl)cc1 the result was ClpP1P2: -1.667%; Leishmania in macrophages: 3.588%; Pks13 thioesterase: -32.16%; PfKRS1: 2.57%; Toxoplasma: -5.796%.
For CC(=O)N(Cc1ncc(C)o1)C1CCN(CCn2cccn2)C1 (centres undefined) the result was ClpP1P2: 3.797%; Leishmania in macrophages: -3.233% & -38.27%; Pks13 thioesterase: 3.636%; PfKRS1: -0.9001%; Toxoplasma: 5.585%.
For O=C(c1ccc2c(c1)CCC2)N1CCN(c2ccc(Cl)cn2)CC1 the result was ClpP1P2: -22.75%; Leishmania in macrophages: 24.88%; Pks13 thioesterase: -18.57%; PfKRS1: 3.613%; Toxoplasma: -4.483%.
For CS(=O)(=O)CCCOc1cccc(-n2ccnc2)c1 the result was ClpP1P2: 0.3159%; Leishmania in macrophages: 13.6%; Pks13 thioesterase: -38.59%; PfKRS1: 7.699%; Toxoplasma: 7.308%.
For CCCS(=O)(=O)NCC(C)c1ccc(F)c(F)c1 (centres undefined) the result was ClpP1P2: -7.317%; Leishmania in macrophages: -1.103%; Pks13 thioesterase: -8.696%; PfKRS1: 4.979%; Toxoplasma: 5.369%.
For COC[C@]1(O)CCN(Cc2cnc(N3CCOCC3)nc2)CC1(C)C the result was ClpP1P2: -3.334%; Leishmania in macrophages: 15.09%; Pks13 thioesterase: 5.589%; PfKRS1: 5.896%; Toxoplasma: -10.48%.
For O=C(CCS(=O)(=O)c1ccccc1)NCCCn1cccn1 the result was ClpP1P2: -26.46%; Leishmania in macrophages: 6.105%; Pks13 thioesterase: -2.497%; PfKRS1: -2.645%; Toxoplasma: -8.136%.
For Cc1ccc(CN2C(=O)OCC2CO)c2ccccc12 (centres undefined) the result was ClpP1P2: -8.569%; Leishmania in macrophages: 23.24%; Pks13 thioesterase: -8.402%; PfKRS1: 2.758%; Toxoplasma: 30.32%.
For COc1cccc(CCN2C[C@H]3CCNCC[C@H]3S2(=O)=O)c1 the result was ClpP1P2: 3.276%; Pks13 thioesterase: -30.82%; PfKRS1: 1.749%.
For Cc1nc(C)n(CC2CCCN(CCC(=O)NC3CCCC3)C2)n1 (centres undefined) the result was ClpP1P2: -35.5%; Leishmania in macrophages: 2.91%; Pks13 thioesterase: -34.96%; PfKRS1: -0.2032%; Toxoplasma: 6.905%.
For CN(C)c1cccc(C(=O)Nc2cnn(Cc3ccccn3)c2)c1 the result was ClpP1P2: -15.06%; Leishmania in macrophages: 18.11%; Pks13 thioesterase: -17.4%; PfKRS1: 4.731%; Toxoplasma: -1.391%.
For Cc1nc(C(=O)N[C@H]2COC[C@@H]2N2CCCCC2)cs1 the result was ClpP1P2: 14.91%; Leishmania in macrophages: 19.56%; Pks13 thioesterase: -13.31%; PfKRS1: -3.816%; Toxoplasma: 24.19%.
For O=C(c1nnn(-c2ccc(F)cc2)n1)N(CCO)Cc1ccccc1 the result was ClpP1P2: -9.278%; Leishmania in macrophages: 0.2394%; Pks13 thioesterase: -22.88%; PfKRS1: 5.527%; Toxoplasma: -19.09%.
For O=C(NC1CCCC1)c1nc2c(o1)CN(C(=O)CCO)C2 the result was ClpP1P2: 6.933%; Leishmania in macrophages: -2.418%; Pks13 thioesterase: -19.93%; PfKRS1: 6.366%; Toxoplasma: -4.782%.
For Cc1cnc(N2CCC3(CC2)CN(c2ccsc2)C(=O)CO3)nc1 the result was ClpP1P2: 10.92%; Pks13 thioesterase: 6.313%; PfKRS1: 6.571%.
For COc1c(C)cnc(CN2CCC(N(C)C(=O)C(C)OC)CC2)c1C (centres undefined) the result was ClpP1P2: -2.075%; Leishmania in macrophages: 14%; Pks13 thioesterase: 4.494%; PfKRS1: -0.7192%; Toxoplasma: 26.42%.
For CCNC(=O)[C@@H]1CN(Cc2ccccc2)C[C@H]1C(=O)c1ccc(F)cc1 the result was ClpP1P2: -16.69%; Leishmania in macrophages: -29.83%; Pks13 thioesterase: 3.372%; PfKRS1: 2.102%; Toxoplasma: 19.36%.
For COC[C@@H]1CCC[C@]12CN(S(=O)(=O)c1cccs1)CCO2 the result was ClpP1P2: 0.9181%; Leishmania in macrophages: 3.265%; Pks13 thioesterase: -27.9%; PfKRS1: -0.3389%; Toxoplasma: -0.9043%.
For C[C@H]1C[C@H]2CN(S(=O)(=O)c3ccc(F)cc3)CC[C@@H]2O1 the result was ClpP1P2: -5.121%; Pks13 thioesterase: -20.4%; PfKRS1: 2.483%.
For COc1ccc(Cl)cc1NC(=O)CN1CCc2nc(NC(C)=O)sc2C1 the result was ClpP1P2: -8.008%; Leishmania in macrophages: -8.893%; Pks13 thioesterase: -27.1%; PfKRS1: 4.072%; Toxoplasma: -10.89%.
For O=C(NC[C@]12COC[C@H]1CN(Cc1cccs1)C2)c1ccsc1 the result was ClpP1P2: 4.095%; Pks13 thioesterase: -5.09%; PfKRS1: 5.726%.

Measurements from “University of Dundee, Small-Polar-MMV Screening Library” (2021), ChEMBL document CHEMBL3988442.